The text below walks through data of article PMC9067535.

For the assay, the target named is 3XFlag-CFIm25 (human) (UniProt O43809). As to the kind of experiment: affinity purification with mass spectrometry; Anti-Flag Affinity Gel on lysates of H9 hESCs stably overexpressing Flag-tag CFIm25 or negative control; 4°C, 3 h; washes 30 mM Tris-Cl pH 7.4, 150 mM NaCl, 0.5% Triton X-100; elution with Poly FLAG peptide; no ribonuclease.

No constants are given. Whether binding was seen depends on the method and setting. Binding seen in cells or lysates may run through a third protein. Here binding means that the protein was enriched with, or labelled near, the bait; the list need not be complete.

B1: CFIm59 (protein, UniProt Q8N684 1-471)
chain: MSEGVDLIDIYADEEFNQDPEFNNTDQIDLYDDVLTATSQPSDDRSSSTEPPPPVRQEPSPKPNNKTPAILYTYSGLRNRRAAVYVGSFSWWTTDQQLIQVIRSIGVYDVVELKFAENRANGQSKGYAEVVVASENSVHKLLELLPGKVLNGEKVDVRPATRQNLSQFEAQARKRECVRVPRGGIPPRAHSRDSSDSADGRATPSENLVPSSARVDKPPSVLPYFNRPPSALPLMGLPPPPIPPPPPLSSSFGVPPPPPGIHYQHLMPPPPRLPPHLAVPPPGAIPPALHLNPAFFPPPNATVGPPPDTYMKASAPYNHHGSRDSGPPPSTVSEAEFEDIMKRNRAISSSAISKAVSGASAGDYSDAIETLLTAIAVIKQSRVANDERCRVLISSLKDCLHGIEAKSYSVGASGSSSRKRHRSRERSPSRSRESSRRHRDLLHNEDRHDDYFQERNREHERHRDRERDRHH
Take B1: the binding result is “binds”.
